Laboratory results published in PMC4890852.
Results are given in words; binding and its absence hold for the method and conditions named. Binding seen in cells or lysates may run through a third protein.

Amino acid sequences for entries named in this document (tags omitted).
UniProt Q9UNE7: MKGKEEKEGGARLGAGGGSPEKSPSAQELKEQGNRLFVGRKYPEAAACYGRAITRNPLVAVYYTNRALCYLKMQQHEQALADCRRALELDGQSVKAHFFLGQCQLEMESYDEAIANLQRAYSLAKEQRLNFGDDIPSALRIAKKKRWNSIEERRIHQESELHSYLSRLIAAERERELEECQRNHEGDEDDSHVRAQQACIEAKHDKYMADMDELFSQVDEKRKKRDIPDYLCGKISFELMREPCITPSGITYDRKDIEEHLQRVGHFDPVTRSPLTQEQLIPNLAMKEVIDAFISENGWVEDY

Target: HA-NMNAT2 (human nicotinamide mononucleotide adenylyl transferase 2, wild type) (human) (UniProt Q9BZQ4)
Test: co-IP; HA-tagged NMNAT2 (WT or variants) immunoprecipitated from soluble lysates of the doxycycline-induced hTau40 HEK293 stable cell line, 48 h after transfection; blots for HSP90, HSP70, HOP, CHIP

binding	Substance
no binding	HOP, endogenous in HEK293-tau cells (from UniProt P31948 1-543)
no binding	C-terminus of HSC70 Interacting Protein (CHIP), endogenous in HEK293-tau cells (from UniProt Q9UNE7 1-303)
